This is one part of the list. Many values rest on one well or one pass, so single values are uncertain.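 Cells were imaged in 1,536-well plates, and nuclei stained with an antibody against cleaved PARP were counted against all DNA-stained nuclei to give the apoptosis fraction. Screening doses were chosen to leave most cells alive, and resting and induced cleaved-PARP levels differ strongly between cell lines.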
These molecules were tested on C32 (assay: cleaved PARP positive nuclei fraction relative to DMSO control; melanoma cells; higher = more apoptosis). Conditions: library dose: low library concentration; 72 h.

Row | Structure (SMILES) | cleaved PARP positive nuclei fraction [%]
1 | CC(=O)c1c(C)c2cnc(Nc3ccc(N4CCNCC4)cn3)nc2n(C2CCCC2)c1=O [palbociclib] + C[As](C)SC[C@H](NC(=O)CC[C@H](N)C(=O)O)C(=O)NCC(=O)O [Darinaparsin] (first compound 0.04 µM, partner dose 0.4 µM) | 114
2 | NC1(c2ccc(-c3nc4ccn5c(=O)[nH]nc5c4cc3-c3ccccc3)cc2)CCC1 + N.N.[Cl][Pt][Cl] [cisplatin] (first compound 0.4 µM, partner dose 1.6 µM) | 85.8
3 | Cc1cc(Nc2cc(N3CCN(C)CC3)nc(Sc3ccc(NC(=O)C4CC4)cc3)n2)n[nH]1 [Tozasertib] + Cn1cc(C2=C(c3cn(C4CCN(Cc5ccccn5)CC4)c4ccccc34)C(=O)NC2=O)c2ccccc21 [Enzastaurin] (first compound 0.006 µM, partner dose 0.8 µM) | 62.4
4 | CC(C)C[C@H](NC(=O)[C@H](Cc1ccccc1)NC(=O)c1cnccn1)B(O)O [Bortezomib] + N.N.[Cl][Pt][Cl] [cisplatin] (first compound 0.001 µM, partner dose 1.6 µM) | 86.1
5 | Nc1nc(F)nc2c1ncn2[C@@H]1O[C@H](CO)[C@@H](O)[C@@H]1O [fludarabine] + C[As](C)SC[C@H](NC(=O)CC[C@H](N)C(=O)O)C(=O)NCC(=O)O [Darinaparsin] (first compound 0.2 µM, partner dose 0.4 µM) | 86.4
6 | Cn1cc(C2=C(c3cn(C4CCN(Cc5ccccn5)CC4)c4ccccc34)C(=O)NC2=O)c2ccccc21 [Enzastaurin] + CCN(CC)CCNC(=O)c1c(C)[nH]c(/C=C2\C(=O)Nc3ccc(F)cc32)c1C [sunitinib] (first compound 0.8 µM, partner dose 0.4 µM) | 74.5
7 | C[C@]12O[C@H](C[C@]1(O)CO)n1c3ccccc3c3c4c(c5c6ccccc6n2c5c31)CNC4=O [Lestaurtinib] + Nc1cccc2c1CN(C1CCC(=O)NC1=O)C2=O [lenalidomide] (first compound 0.004 µM, partner dose 1 µM) | 69.2
8 | N.N.[Cl][Pt][Cl] [cisplatin] + Cn1nnc2c(C(N)=O)ncn2c1=O [temozolomide] (first compound 1.6 µM, partner dose 2 µM) | 82.1
9 | Cn1cc(C2=C(c3cn(C4CCN(Cc5ccccn5)CC4)c4ccccc34)C(=O)NC2=O)c2ccccc21 [Enzastaurin] + CNC(=O)c1cc(Oc2ccc(NC(=O)Nc3ccc(Cl)c(C(F)(F)F)c3)cc2)ccn1 [sorafenib] (first compound 0.8 µM, partner dose 0.4 µM) | 78.9
10 | Cc1cn(-c2cc(NC(=O)c3ccc(C)c(Nc4nccc(-c5cccnc5)n4)c3)cc(C(F)(F)F)c2)cn1 [nilotinib] + C[As](C)SC[C@H](NC(=O)CC[C@H](N)C(=O)O)C(=O)NCC(=O)O [Darinaparsin] (first compound 0.2 µM, partner dose 0.4 µM) | 82.2
11 | Cc1ccc(Nc2nccc(N(C)c3ccc4c(C)n(C)nc4c3)n2)cc1S(N)(=O)=O [Pazopanib] + Cn1cc(C2=C(c3cn(C4CCN(Cc5ccccn5)CC4)c4ccccc34)C(=O)NC2=O)c2ccccc21 [Enzastaurin] (first compound 0.4 µM, partner dose 0.8 µM) | 81.1
12 | C[C@]12O[C@H](C[C@]1(O)CO)n1c3ccccc3c3c4c(c5c6ccccc6n2c5c31)CNC4=O [Lestaurtinib] + OCc1c[nH]c2ccccc12 [Indole-3-carbinol] (first compound 0.004 µM, partner dose 0.8 µM) | 74.5
13 | Cn1cc(C2=C(c3cn(C4CCN(Cc5ccccn5)CC4)c4ccccc34)C(=O)NC2=O)c2ccccc21 [Enzastaurin] + C[C@]1(O)C[C@@H](c2nc(-c3ccc4ccc(-c5ccccc5)nc4c3)c3c(N)nccn32)C1 [OSI906] (first compound 0.8 µM, partner dose 0.4 µM) | 165
14 | O=C(/C=C/c1cccnc1)NCCCCC1CCN(C(=O)c2ccccc2)CC1 + N.N.[Cl][Pt][Cl] [cisplatin] (first compound 0.01 µM, partner dose 1.6 µM) | 67.7
15 | O=C(Nc1cc(C(F)(F)F)cc(C(F)(F)F)c1)c1cc(Cl)ccc1O + Cn1cc(C2=C(c3cn(C4CCN(Cc5ccccn5)CC4)c4ccccc34)C(=O)NC2=O)c2ccccc21 [Enzastaurin] (first compound 0.016 µM, partner dose 0.8 µM) | 63.2
16 | C#Cc1cccc(Nc2ncnc3cc(OCCOC)c(OCCOC)cc23)c1 [erlotinib] + C[As](C)SC[C@H](NC(=O)CC[C@H](N)C(=O)O)C(=O)NCC(=O)O [Darinaparsin] (first compound 0.8 µM, partner dose 0.4 µM) | 79.7
17 | Cn1cnc2c(F)c(Nc3ccc(Br)cc3Cl)c(C(=O)NOCCO)cc21 [selumetinib] + Cn1cc(C2=C(c3cn(C4CCN(Cc5ccccn5)CC4)c4ccccc34)C(=O)NC2=O)c2ccccc21 [Enzastaurin] (first compound 0.015 µM, partner dose 0.8 µM) | 76
18 | N.N.[Cl][Pt][Cl] [cisplatin] + C[C@@H](Oc1cc(-c2cnn(C3CCNCC3)c2)cnc1N)c1c(Cl)ccc(F)c1Cl [Crizotinib] (first compound 1.6 µM, partner dose 0.2 µM) | 90.4

A few values from the entries so far:
Under cleaved PARP positive nuclei fraction [%], Cn1cc(C2=C(c3cn(C4CCN(Cc5ccccn5)CC4)c4ccccc34)C(=O)NC2=O)c2ccccc21 [Enzastaurin] + CNC(=O)c1cc(Oc2ccc(NC(=O)Nc3ccc(Cl)c(C(F)(F)F)c3)cc2)ccn1 [sorafenib] (first compound 0.8 µM, partner dose 0.4 µM) shows 78.9
Under cleaved PARP positive nuclei fraction [%], Nc1nc(F)nc2c1ncn2[C@@H]1O[C@H](CO)[C@@H](O)[C@@H]1O [fludarabine] + C[As](C)SC[C@H](NC(=O)CC[C@H](N)C(=O)O)C(=O)NCC(=O)O [Darinaparsin] (first compound 0.2 µM, partner dose 0.4 µM) shows 86.4
